## Assay results

The results are deposited in PubChem (AID1159506; NCATS, 2015).

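Luminescence from an EWS-FLI1 target-promoter (NR0B1) reporter, set against a CMV-promoter reporter, two days after silencing single genes in TC32 Ewing sarcoma cells.
Each siRNA was applied at 20 nM.
A z-score of the log NR0B1-over-CMV signal, less the median of siRNAs with the same seed; more negative means a stronger specific loss of the NR0B1 reporter.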

This is part of the screen; most of the strongest results are not listed here.
Sequences are the guide (antisense) strand, without overhang.

Sequence | target gene | seed-corrected z-score
UACUUAUCCCGGAUGAACU | PRPF31 | -1.301
UAUCUAAGAUUGACAGUCC | GRK4 | 0.1183
UCUAGACUCCGGCAGGUUG | OTX1 | -0.8081
AAAGAAAGAAGUGCUUGCC | XRCC1 | -0.1787
UUCACUAUCAGCACUGAUG | GNMT | 0.5622
UAUCCGAAAGUGUAUAACC | MAP3K15 | -0.0489
UAGGUUUAGAGUCAUCAAG | RUNX2 | -0.2905
UAGUCGACUAUUACAGAGC | TOPBP1 | 0.07358
UCUCGUUCUGGUGUUUUGC | PRSS42 | 0.2638
UCAGGAAACGAAGCACCUG | ARHGAP1 | 0.3287
UAUUCUGAAAGAUACUGUU | TMPRSS5 | 0.6348
UUUCGUUUGAAAUCAGGCC | ABHD5 | 0.01563
UAUGUCUUUAGCAACAACC | HSDL1 | -0.5616
UGAGGGAUAGGUUGUGCCG | FOXN1 | -0.4041
UUGUUAAGAGUGCUUAUCC | GUSBP1 | 0.3145
UCAGUGACCUUUCUAGGGC | AKR1C8P | 0.221
UUAUCUCCCUCUGCGAUGG | USP43 | 0.7998
UUGGUAUCCAUUAUCGAUC | DNAJC28 | 0.9717
UAGACUCUUUCAGCUUUCC | RPL21P106 | 0.6224
AUGCGGAUCAGCUUGUCUG | TGM5 | -1.979
UCAUGUUCGAUCUUCUUCC | C19orf53 | -0.9397
UUUCAUUCACAGUAAAUCC | PAAF1 | 0.5615
UUAGGUUCGAACUCCUUGG | HFE | -0.09756
UUCUUCCACACCCAUAGCC | SLC22A8 | -0.2785
AAAGGCACUGUUGAUGUGG | ACOT11 | 0.8759
UUAUGAUCUCCUGUUAGGC | XDH | 0.5164
UUCCAUUUUGGGAUUUUCC | PDIK1L | 0.3621
UUUGUUCUCAGGGUCGCUG | FHDC1 | -0.7508
UGAGUUACAAGCAAUAUGC | AKAP13 | -1.426
UCCGAGACUACUAUGGUUG | CEP162 | -0.02202
UUCUCGGUCAGGACAGAGG | HBZ | -0.3718
UGUCCAACAACAGACAGGC | SLC7A6 | 0.09911
UCCCUUACCAUCUUCCUUC | IL6ST | 1.34
ACUGUUGUUAAUGACAACC | DLST | -0.379
UCUUCCUCAGCGAUCUUCU | RRP7A | 0.2632
UUCGGAAAAACAUGAACAG | CENPP | 0.2338
UUCUGGGCUCGUCACAUCC | GRHPR | 0.03715
AUCCAUAUCAUCAUUGCUG | BCCIP | 0.8772
UUCGCCUUCAUAACUCAGC | SERPINF1 | 0.5525
AAAGUAGACAGGUGACCUC | ZYG11A | -0.577
UUGGGUCCAUCGUAGUCCG | GNAT1 | -0.04551
ACAGGUACUCUCAUUGUGG | AGT | -0.3602
UUUCUACCAUCGGAUGCUC | CILP2 | -0.7632
AAGAGCAACACGGACAUCC | FAM124B | -0.8519
UUAGGUAUUCCAUGAAUCC | ZCCHC9 | 0.2738
UCUGCGAAUAUGGAUGCUC | CCDC30 | -0.04722
AAUCUGAUAGAGAGGAUCC | IPO9 | 1.358
UUUCGUACCCGUCAUAAAC | ECE2 | -0.2055
UGACUAACUCUUCCAGGGC | NOL9 | 0.9836
UCAGAAAAAUCAAUCUUCU | S100A7 | -0.03621
ACAGCUAUUCAUGUGGGUG | SYCE3 | -0.4362
UGACUAUUCACUUGACCAC | URI1 | -0.24
AAAGGUUUGAAUACAAUGA | HTATSF1P2 | -0.1209
UGAGUUUGUUGAUAGAACG | EIF2S1 | -0.2846
AUGAGUGACACAGCGAGGU | ZDHHC12 | -0.7491
UUACUGAUACUUUAAUGUC | PDHX | -0.05476
UAGGUAUGAAUGAUCGCUG | ZNF597 | -1.466
UCUCAGCCCAGCUAUUCCC | AKR7A2 | 0.1879
UUACUUUAAUCUGCACGGG | TMUB1 | 0.9864
UCAGGAACUUCGUUACAGC | TPP1 | -0.6502
AUAUUUGCGGUCUGAAUCC | TPM2 | -0.116
UCUGGCAUACUCGAACUUC | RPL18P4 | -1.851
UGAGAGAACAGAGAUCUGC | SOX21 | 1.237
UUACACUCCUGCAAGAUGU | PPP6R2 | 0.09096
UUCCUCGUCACCUCAGCAC | MANBAL | 0.1145
AACUUGCUGUCUAUUAUCC | AKAP13 | -0.8477
UGAGUAUAUUGAGAGGUGG | WASF1 | -0.8408
UAGCCUUUCAUGUCCAUAG | EPHX2 | -0.5867
AAAGUUUCCUCCUCGUCUC | DDX27 | -1.054
UUGUCGGUCAUCGAUUUGG | ADGRF4 | -0.07213
UGACUUAACAAAAAGGUCC | RASD1 | -0.06562
UUUGUUGUACAGUAUCGCC | HYDIN | -0.8621
AUUCUGUUUAGGGUCCUGU | MRPS21 | -0.04962
UACGGUGAAUUGACCGACU | LOC284395 | -0.9598
UCAUUGCUAAAAGCCUUCC | ZNF570 | 0.1212
UGAAGAGUCAUCCCGAACC | VAV1 | 0.04676
UUGACUGUCAAUGAUGGGC | GTF2IRD1P1 | 0.3848
UACUGUUCGUCGAUCAUCC | KIAA1429 | -0.5558
UCUGUUGAAGGCUAUUUCC | GK5 | 0.9306
UCAAGGCUCAGUGAGGUUC | TOR2A | 0.5831
UUCUUCAUCCACUCGAUCG | MMP24 | -0.2196

Repeated from the top, 6 entries:

| Sequence | target gene | seed-corrected z-score |
|---|---|---|
| `UACUUAUCCCGGAUGAACU` | PRPF31 | -1.301 |
| `UAUCUAAGAUUGACAGUCC` | GRK4 | 0.1183 |
| `UCUAGACUCCGGCAGGUUG` | OTX1 | -0.8081 |
| `AAAGAAAGAAGUGCUUGCC` | XRCC1 | -0.1787 |
| `UUCACUAUCAGCACUGAUG` | GNMT | 0.5622 |
| `UAUCCGAAAGUGUAUAACC` | MAP3K15 | -0.0489 |